Experimental data: US20030215913A1
No constants are given. Whether binding was seen depends on the method and setting. Some entries that bind do so weakly or less than the wild type.

Protein sequences, listed by entry. Tags and fused reporters are not part of them. Residues count along the entry.
UniProt P01137, residues 279-390: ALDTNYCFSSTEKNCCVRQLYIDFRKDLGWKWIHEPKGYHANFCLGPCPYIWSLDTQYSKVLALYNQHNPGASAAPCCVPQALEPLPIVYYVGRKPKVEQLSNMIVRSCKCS

Experiments:
Test in all cases: BIAcore 2000 SPR, LP226 amine-coupled to CM5 chip, ligand injected
TGF-beta 1 = TGF-beta 1 (UniProt P01137)
BMP-4 = target: T1, BMP-4 (UniProt P12644)
T1 sequence (looked up): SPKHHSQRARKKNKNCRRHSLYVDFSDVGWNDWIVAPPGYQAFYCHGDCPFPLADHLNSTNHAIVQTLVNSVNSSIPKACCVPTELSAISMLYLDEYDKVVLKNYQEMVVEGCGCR

TGF-beta 2 = target: T2, TGF-beta 2 (UniProt P61812)
T2 sequence (looked up): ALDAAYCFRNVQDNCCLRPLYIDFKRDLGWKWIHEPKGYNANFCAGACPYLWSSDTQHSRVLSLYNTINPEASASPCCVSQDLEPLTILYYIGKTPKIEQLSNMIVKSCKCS

Measured: binding

B1: LP226 (protein)
chain: RARPDMFCLFHGKRYSPGESWHPYLEPQGLMYCLRCTCSEGAHVSCYRLHCPPVHCPQPVTEPQQCCPKCVEPHTPSGLRAPPKSCQHNGTMYQHGEIFSAHELFPSRLPNQCVLCSCTEGQIYCGLTTCPEPGCPAPLPLPDSCCQACKDEASEQSDEEDSVQSLHGVRHPQDPCSSDAGRKRGPGTPAPTGLSAPLSFIPRHFRPKGAGSTTVKIVLKEKHKKACVHGGKTYSHGEVWHPAFRAFGPLPCILCTCEDGRQDCQRVTCPTEYPCRHPEKVAGKCCKICPEDKADPGHSEISSTRCPKAPGRVLVHTSVSPSPDNLRRFALEHEASDLVEIYLWKLVKGIFHLTQIKKVRKQDFQKEAQHFRLLAGPHEGHWNVFLAQTLELKVTASPDKVTKT
binds: all assays above
